Settings: H 4.0 (pH 4.0); visual inspection

Structure (SMILES): CC(C)c1c(C(=O)Nc2ccccc2)c(-c2ccccc2)c(-c2ccc(F)cc2)n1CC[C@@H](O)C[C@@H](O)CC(=O)[O-].[K+] [Form I]
- Appearance of the solution in the solubility test: opalescent
